Data taken from publication PMC12116642.
Results are given in words; binding and its absence hold for the method and conditions named. In cells and extracts the contact can be indirect. Some results given as binding are weak or reduced against the parent protein; the word gives no strength.

Sequences of proteins named here, by UniProt entry; tags and fusion partners are left off.
UniProt Q9UPY5: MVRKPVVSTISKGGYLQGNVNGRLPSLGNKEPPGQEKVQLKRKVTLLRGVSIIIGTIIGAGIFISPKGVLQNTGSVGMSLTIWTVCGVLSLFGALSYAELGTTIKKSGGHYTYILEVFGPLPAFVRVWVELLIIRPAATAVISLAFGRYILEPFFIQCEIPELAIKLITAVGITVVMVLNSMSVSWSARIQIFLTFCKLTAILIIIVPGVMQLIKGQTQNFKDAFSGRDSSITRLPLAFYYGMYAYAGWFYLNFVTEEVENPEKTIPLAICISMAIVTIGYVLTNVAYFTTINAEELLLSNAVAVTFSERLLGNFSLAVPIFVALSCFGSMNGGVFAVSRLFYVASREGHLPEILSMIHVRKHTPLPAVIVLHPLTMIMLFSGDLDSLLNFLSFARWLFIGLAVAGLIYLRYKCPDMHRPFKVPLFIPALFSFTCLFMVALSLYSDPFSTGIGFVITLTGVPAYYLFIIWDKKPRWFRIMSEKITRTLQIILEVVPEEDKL
UniProt Q14457: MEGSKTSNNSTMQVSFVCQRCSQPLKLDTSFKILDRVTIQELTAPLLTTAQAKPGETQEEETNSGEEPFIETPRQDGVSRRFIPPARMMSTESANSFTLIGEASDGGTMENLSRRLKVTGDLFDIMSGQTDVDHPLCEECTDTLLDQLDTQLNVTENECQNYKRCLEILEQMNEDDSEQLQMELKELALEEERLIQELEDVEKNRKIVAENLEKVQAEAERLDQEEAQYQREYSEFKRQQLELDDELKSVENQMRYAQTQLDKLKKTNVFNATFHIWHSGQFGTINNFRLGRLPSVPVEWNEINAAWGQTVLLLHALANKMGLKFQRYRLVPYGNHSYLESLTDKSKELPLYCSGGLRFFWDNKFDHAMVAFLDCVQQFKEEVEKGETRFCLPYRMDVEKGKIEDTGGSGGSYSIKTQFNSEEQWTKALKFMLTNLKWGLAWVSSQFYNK

Target: solute carrier family 7 member 11 (SLC7A11) (human (endogenous in HN6 and CAL27)) (UniProt Q9UPY5)
Experiment: co-IP; total protein lysates of HN6 and CAL27 cells, control or treated with CAP (capsaicin); immunoprecipitation kit with specific antibodies, protein A/G magnetic beads, elution by boiling in SDS sample buffer, Western blot; the precipitating antibody is not named

Substance: BECN1 (from UniProt Q14457 1-450)
- binding: binds
